Measurements: patent US20050002923A1 (published 2005)

Test system: UvrABC with Δβh UvrB (Bca) UvrB deletion Gln97-Asp112 replaced by Gly (Bacillus caldotenax)
Assay: enzyme reaction in vitro
Settings: internal fluorescein adduct at n (position 12) of the 26-mer [strand 1 position 12 (fluorescein-adducted T, opposite A)]; no incision; 42 C 1 h; purified recombinant protein; protein details: tag-free, purified via intein-CBD fusions; label: 5'-32P on 26-mer; letters built from the parent sequence and the stated change

## TAGATTTAGTTTGACCATTAGATACA / AAATGTATCTAATGGTCAAACTAAATCTACTCGTT [HS1F-M13mp19(+)]
  activity on this sequence: not active

Negatives hold for the conditions tested.
